{"sequences": {"note": "Chains of the proteins cited; added tags and fusions are not shown. Lines headed by an entry give the natural chain unless they say otherwise; changes in a name come on top.", "UniProt O96971": "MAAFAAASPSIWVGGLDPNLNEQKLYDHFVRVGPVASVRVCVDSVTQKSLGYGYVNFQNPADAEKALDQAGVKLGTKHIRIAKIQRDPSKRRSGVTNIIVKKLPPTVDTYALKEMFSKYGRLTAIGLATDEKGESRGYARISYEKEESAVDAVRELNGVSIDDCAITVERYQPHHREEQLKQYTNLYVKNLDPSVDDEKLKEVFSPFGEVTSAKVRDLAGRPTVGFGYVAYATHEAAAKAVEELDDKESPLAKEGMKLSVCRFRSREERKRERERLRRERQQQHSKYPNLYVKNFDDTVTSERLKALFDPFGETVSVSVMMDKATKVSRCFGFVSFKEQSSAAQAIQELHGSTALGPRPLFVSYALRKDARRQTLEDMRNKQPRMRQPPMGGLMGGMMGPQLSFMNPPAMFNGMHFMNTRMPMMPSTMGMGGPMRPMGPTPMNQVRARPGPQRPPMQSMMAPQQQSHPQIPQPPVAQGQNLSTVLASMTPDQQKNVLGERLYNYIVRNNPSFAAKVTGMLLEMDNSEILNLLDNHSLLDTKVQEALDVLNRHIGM", "UniProt Q38E63": "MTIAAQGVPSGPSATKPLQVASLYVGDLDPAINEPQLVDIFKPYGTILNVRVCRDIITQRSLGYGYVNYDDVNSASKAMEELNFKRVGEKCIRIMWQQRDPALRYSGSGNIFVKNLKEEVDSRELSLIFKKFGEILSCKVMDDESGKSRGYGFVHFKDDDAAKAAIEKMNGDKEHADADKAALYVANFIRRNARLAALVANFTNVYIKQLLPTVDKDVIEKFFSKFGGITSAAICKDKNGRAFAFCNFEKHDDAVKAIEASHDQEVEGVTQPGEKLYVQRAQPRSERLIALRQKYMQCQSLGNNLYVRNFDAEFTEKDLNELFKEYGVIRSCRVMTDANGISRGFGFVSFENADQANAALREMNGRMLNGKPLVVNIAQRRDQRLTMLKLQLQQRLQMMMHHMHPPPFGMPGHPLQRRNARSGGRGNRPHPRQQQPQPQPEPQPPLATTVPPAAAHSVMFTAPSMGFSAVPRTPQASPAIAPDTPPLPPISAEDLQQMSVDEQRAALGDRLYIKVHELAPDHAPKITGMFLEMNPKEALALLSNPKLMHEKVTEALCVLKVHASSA", "UniProt Q383M3": "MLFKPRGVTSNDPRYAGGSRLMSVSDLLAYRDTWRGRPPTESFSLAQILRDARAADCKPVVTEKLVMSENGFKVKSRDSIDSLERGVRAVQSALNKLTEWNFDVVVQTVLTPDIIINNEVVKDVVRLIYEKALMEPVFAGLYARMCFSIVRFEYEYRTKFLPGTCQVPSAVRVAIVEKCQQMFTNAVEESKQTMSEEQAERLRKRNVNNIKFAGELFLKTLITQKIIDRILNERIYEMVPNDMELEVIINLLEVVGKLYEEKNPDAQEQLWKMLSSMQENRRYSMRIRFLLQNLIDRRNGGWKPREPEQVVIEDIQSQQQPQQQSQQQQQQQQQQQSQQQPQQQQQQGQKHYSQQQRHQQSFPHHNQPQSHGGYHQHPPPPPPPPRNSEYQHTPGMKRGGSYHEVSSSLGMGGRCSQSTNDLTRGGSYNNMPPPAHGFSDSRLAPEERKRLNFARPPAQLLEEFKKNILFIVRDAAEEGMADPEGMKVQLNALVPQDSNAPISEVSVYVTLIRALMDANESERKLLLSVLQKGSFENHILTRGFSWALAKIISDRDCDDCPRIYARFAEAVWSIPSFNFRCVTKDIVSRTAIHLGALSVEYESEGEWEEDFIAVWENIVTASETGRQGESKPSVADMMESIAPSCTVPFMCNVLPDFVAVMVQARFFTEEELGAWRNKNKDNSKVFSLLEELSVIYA", "UniProt Q57VY5": "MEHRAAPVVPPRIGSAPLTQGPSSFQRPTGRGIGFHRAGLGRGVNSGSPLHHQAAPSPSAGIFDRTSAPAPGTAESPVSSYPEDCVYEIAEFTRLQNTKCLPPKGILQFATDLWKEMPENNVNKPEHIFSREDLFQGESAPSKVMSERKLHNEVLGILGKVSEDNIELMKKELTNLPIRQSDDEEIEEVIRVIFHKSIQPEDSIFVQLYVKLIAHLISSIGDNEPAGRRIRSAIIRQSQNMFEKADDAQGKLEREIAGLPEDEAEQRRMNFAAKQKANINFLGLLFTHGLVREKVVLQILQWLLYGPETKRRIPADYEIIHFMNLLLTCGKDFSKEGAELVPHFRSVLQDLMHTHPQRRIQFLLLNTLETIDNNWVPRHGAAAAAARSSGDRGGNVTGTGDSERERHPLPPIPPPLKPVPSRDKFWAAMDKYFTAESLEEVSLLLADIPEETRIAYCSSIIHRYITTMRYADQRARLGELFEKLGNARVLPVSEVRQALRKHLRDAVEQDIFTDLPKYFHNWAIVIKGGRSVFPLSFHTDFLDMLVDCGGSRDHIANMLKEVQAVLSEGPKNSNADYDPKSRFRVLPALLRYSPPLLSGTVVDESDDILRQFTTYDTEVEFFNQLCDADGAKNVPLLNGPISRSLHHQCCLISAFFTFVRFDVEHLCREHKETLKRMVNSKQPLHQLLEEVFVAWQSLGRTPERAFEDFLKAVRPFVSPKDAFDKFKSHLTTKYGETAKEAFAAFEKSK", "UniProt Q57UX0": "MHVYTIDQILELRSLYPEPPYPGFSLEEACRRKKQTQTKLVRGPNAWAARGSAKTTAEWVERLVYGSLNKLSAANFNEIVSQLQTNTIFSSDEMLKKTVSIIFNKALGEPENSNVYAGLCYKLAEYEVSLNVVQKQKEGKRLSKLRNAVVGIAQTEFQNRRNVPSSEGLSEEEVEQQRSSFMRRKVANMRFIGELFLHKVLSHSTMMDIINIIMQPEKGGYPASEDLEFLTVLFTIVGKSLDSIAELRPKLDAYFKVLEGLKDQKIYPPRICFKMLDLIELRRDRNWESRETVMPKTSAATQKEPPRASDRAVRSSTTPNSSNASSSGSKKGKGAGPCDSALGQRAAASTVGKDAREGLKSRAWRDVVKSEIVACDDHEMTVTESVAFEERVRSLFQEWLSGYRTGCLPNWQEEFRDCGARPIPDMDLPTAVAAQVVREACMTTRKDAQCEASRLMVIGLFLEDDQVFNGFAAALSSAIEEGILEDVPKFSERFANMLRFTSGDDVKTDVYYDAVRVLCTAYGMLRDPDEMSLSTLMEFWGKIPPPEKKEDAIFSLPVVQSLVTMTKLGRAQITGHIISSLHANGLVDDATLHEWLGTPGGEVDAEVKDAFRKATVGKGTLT", "UniProt Q389L2": "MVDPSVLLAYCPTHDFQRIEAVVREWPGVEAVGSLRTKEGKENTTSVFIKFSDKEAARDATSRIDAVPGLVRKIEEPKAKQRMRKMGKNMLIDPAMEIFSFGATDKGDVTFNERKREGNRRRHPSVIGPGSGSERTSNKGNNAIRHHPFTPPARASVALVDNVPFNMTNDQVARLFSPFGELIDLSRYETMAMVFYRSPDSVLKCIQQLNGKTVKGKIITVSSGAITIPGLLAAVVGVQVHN", "UniProt Q386T3": "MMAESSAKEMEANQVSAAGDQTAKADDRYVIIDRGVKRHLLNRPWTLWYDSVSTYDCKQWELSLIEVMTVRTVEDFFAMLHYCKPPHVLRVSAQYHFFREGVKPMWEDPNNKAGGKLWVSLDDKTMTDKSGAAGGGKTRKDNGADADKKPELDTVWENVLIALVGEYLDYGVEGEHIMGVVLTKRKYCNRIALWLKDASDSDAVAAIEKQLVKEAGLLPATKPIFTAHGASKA", "UniProt Q386W1": "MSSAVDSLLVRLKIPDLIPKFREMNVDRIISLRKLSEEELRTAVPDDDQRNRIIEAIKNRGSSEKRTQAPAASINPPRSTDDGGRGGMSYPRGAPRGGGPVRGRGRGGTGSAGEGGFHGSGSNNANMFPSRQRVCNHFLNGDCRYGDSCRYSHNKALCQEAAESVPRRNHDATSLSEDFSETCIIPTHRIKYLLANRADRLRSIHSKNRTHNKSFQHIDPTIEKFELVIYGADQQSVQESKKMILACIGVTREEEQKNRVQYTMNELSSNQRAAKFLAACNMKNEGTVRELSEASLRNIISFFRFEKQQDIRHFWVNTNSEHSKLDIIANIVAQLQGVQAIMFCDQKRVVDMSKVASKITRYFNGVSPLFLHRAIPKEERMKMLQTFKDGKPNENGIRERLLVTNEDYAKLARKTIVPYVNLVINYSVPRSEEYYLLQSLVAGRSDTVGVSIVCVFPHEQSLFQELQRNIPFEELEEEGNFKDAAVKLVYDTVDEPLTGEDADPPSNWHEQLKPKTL", "UniProt Q38E49": "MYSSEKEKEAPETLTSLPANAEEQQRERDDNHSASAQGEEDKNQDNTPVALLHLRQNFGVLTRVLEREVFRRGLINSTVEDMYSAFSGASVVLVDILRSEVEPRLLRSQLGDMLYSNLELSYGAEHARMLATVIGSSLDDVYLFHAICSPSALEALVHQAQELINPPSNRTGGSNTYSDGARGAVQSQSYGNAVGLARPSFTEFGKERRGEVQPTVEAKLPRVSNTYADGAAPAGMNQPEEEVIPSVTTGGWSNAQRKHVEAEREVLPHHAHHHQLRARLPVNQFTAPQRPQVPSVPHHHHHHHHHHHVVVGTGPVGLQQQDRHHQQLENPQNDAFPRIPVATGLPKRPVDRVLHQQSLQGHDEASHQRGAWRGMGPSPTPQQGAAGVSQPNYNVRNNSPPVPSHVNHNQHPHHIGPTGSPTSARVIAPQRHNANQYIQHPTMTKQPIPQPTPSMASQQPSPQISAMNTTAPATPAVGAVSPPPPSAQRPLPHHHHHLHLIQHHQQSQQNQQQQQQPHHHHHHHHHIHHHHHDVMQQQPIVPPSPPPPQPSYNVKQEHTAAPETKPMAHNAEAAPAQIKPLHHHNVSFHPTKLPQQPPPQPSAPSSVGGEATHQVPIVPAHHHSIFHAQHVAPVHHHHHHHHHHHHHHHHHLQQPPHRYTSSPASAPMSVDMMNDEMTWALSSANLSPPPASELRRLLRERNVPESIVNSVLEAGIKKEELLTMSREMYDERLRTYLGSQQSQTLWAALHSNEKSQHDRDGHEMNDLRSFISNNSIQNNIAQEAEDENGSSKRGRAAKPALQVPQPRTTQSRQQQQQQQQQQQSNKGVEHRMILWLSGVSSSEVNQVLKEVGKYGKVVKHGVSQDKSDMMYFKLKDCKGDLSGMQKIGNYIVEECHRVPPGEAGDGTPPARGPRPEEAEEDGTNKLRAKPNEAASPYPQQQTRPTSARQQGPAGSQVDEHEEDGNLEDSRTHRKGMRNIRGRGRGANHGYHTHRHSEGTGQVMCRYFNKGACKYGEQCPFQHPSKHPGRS", "UniProt Q38F76": "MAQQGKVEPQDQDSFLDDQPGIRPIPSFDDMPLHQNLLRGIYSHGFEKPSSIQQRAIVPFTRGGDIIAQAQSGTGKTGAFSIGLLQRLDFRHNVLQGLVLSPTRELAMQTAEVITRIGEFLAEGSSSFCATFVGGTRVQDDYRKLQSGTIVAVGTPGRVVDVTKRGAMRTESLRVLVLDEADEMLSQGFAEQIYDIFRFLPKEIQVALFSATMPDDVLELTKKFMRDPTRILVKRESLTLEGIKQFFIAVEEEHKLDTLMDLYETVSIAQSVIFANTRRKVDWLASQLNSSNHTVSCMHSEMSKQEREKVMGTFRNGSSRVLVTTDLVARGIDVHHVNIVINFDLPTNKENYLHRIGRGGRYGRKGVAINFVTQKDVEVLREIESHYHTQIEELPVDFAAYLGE", "UniProt Q585M4": "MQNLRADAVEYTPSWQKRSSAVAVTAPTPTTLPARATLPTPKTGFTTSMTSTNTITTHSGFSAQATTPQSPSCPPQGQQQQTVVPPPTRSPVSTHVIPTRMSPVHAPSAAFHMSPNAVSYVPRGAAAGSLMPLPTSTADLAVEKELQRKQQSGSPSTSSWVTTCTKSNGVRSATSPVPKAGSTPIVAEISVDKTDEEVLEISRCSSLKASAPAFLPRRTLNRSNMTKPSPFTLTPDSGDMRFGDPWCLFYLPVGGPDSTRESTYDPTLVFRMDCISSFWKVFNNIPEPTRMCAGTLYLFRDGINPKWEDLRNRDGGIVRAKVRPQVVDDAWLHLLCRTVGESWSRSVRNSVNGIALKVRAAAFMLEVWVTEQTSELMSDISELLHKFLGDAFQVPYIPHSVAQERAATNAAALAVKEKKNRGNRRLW", "UniProt Q387L6": "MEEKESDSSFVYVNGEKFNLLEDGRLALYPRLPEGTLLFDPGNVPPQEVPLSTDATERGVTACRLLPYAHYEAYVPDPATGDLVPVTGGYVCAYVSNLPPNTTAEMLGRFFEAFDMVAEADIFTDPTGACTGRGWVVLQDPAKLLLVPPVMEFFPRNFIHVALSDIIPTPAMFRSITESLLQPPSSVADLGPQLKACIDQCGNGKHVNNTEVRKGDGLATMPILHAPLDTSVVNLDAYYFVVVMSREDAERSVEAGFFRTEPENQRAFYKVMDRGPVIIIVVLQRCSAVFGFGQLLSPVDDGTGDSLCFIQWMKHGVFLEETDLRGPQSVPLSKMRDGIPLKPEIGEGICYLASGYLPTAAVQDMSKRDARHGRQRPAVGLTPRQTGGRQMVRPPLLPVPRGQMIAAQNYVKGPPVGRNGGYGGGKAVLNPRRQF"}, "source": "paper PMC6075789", "about": "“Comparative proteomics of the two T. brucei PABPs suggests that PABP2 controls bulk mRNA” (PLoS Neglected Tropical Diseases, 2018)", "key": {"PABP2-eYFP (T. brucei) [1]": {"biological_target": "PABP2-eYFP (T. brucei) (UniProt O96971)", "experiment": "affinity purification with mass spectrometry; As a1, results told for the low salt buffer: 20 mM HEPES pH 7.4, 50 mM NaCl, 1 mM MgCl2, 100 uM CaCl2, 0.1% CHAPS"}, "PABP2-eYFP (T. brucei) [2]": {"biological_target": "PABP2-eYFP (T. brucei) (UniProt O96971)", "experiment": "affinity purification with mass spectrometry; PABP-eYFP captured from lysate of cryomilled procyclic cells with polyclonal anti-GFP llama antibodies on Dynabeads; low salt and high salt buffer, two replicates each; high confidence list: at least two-fold enriched over wild type control cells in all four experiments; label free quantification"}, "PABP1-eYFP (T. brucei) [3]": {"biological_target": "PABP1-eYFP (T. brucei) (UniProt Q38E63)", "experiment": "affinity purification with mass spectrometry; PABP-eYFP captured from lysate of cryomilled procyclic cells with polyclonal anti-GFP llama antibodies on Dynabeads; low salt and high salt buffer, two replicates each; high confidence list: at least two-fold enriched over wild type control cells in all four experiments; label free quantification"}, "PABP1-eYFP (T. brucei) [4]": {"biological_target": "PABP1-eYFP (T. brucei) (UniProt Q38E63)", "experiment": "affinity purification with mass spectrometry; As a1, results told for the low salt buffer: 20 mM HEPES pH 7.4, 50 mM NaCl, 1 mM MgCl2, 100 uM CaCl2, 0.1% CHAPS"}}, "note": "These are yes or no findings as the source states them, for the method shown. In cells and extracts the contact can be indirect. A yes stands for co-enrichment or nearness to the bait. Other partners may have been found. For some assays here: No binding means not detected with the bait."}
{"substance": "eIF4E5 (from UniProt Q38B99)", "values": [{"measurement": "binding", "setting": "PABP2-eYFP (T. brucei) [1]", "value": "binds"}]}
{"substance": "eIF4G1 (from UniProt Q57VB4)", "values": [{"measurement": "binding", "setting": "PABP2-eYFP (T. brucei) [2]", "value": "binds"}]}
{"substance": "Tb927.11.6720, an mRNA cap guanine-N7 methyltransferase (TbG1-IP) (from UniProt Q384Z7)", "values": [{"measurement": "binding", "setting": "PABP2-eYFP (T. brucei) [2]", "value": "binds"}]}
{"substance": "eIF4G4 (from UniProt Q383M3)", "values": [{"measurement": "binding", "setting": "PABP2-eYFP (T. brucei) [1]", "value": "binds"}]}
{"substance": "eIF4G5 (from UniProt Q57VY5)", "values": [{"measurement": "binding", "setting": "PABP2-eYFP (T. brucei) [1]", "value": "binds"}]}
{"substance": "eIF4G3 (from UniProt Q57UX0)", "values": [{"measurement": "binding", "setting": "PABP1-eYFP (T. brucei) [3]", "value": "binds"}, {"measurement": "binding", "setting": "PABP2-eYFP (T. brucei) [2]", "value": "binds"}]}
{"substance": "RNA binding protein RBP23 (from UniProt Q389L2)", "values": [{"measurement": "binding", "setting": "PABP1-eYFP (T. brucei) [3]", "value": "binds"}, {"measurement": "binding", "setting": "PABP2-eYFP (T. brucei) [2]", "value": "no binding"}]}
{"substance": "eIF4E1 (from UniProt Q386T3)", "values": [{"measurement": "binding", "setting": "PABP2-eYFP (T. brucei) [1]", "value": "binds"}]}
{"substance": "CCCH type zinc finger protein ZC3H41 (from UniProt Q386W1)", "values": [{"measurement": "binding", "setting": "PABP1-eYFP (T. brucei) [3]", "value": "binds"}, {"measurement": "binding", "setting": "PABP2-eYFP (T. brucei) [2]", "value": "binds"}]}
{"substance": "PABP2 (untagged, endogenous) (from UniProt O96971)", "values": [{"measurement": "binding", "setting": "PABP1-eYFP (T. brucei) [3]", "value": "binds"}]}
{"substance": "zinc finger protein ZC3H28 (from UniProt Q38E49)", "values": [{"measurement": "binding", "setting": "PABP2-eYFP (T. brucei) [2]", "value": "binds"}]}
{"substance": "eIF4A1 (from UniProt Q38F76)", "values": [{"measurement": "binding", "setting": "PABP1-eYFP (T. brucei) [4]", "value": "binds"}]}
{"substance": "eIF4E3 (from UniProt Q383A4)", "values": [{"measurement": "binding", "setting": "PABP2-eYFP (T. brucei) [1]", "value": "binds"}]}
{"substance": "eIF4E6 (from UniProt Q57V43)", "values": [{"measurement": "binding", "setting": "PABP2-eYFP (T. brucei) [1]", "value": "binds"}]}
{"substance": "eIF4E4 (from UniProt Q585M4)", "values": [{"measurement": "binding", "setting": "PABP1-eYFP (T. brucei) [3]", "value": "binds"}, {"measurement": "binding", "setting": "PABP2-eYFP (T. brucei) [2]", "value": "binds"}]}
{"substance": "RNA-binding protein Tb927.11.350 (G1-IP2) (from UniProt Q387L6)", "values": [{"measurement": "binding", "setting": "PABP2-eYFP (T. brucei) [2]", "value": "binds"}]}
